In patent US12178818B2, “Methods for treating immune thrombocytopenia by administering (R)-2-[3-[4-amino-3-(2-fluoro-4-phenoxy-phenyl)pyrazolo[3,4-d]pyrimidin-1-yl]piperidine-1-carbonyl]-4-methyl-4-[4-(oxetan-3-yl)piperazin-1-yl]pent-2-enenitrile” (Principia Biopharma Inc., priority 2019, dated 2024):
At least one structure is not confirmed: it was looked up by name or label, or the drawing left a doubt.

Columns and labels:
blood platelets = test: ex vivo platelet aggregation, standard panel of platelet agonists; type: cell-based, human; details: healthy volunteers; 1 μM (FIG. 4)
251-kinase panel = test: 251-kinase panel, kinase selectivity; type: biochemical; details: 1 μM

C=CC(=O)N1CCC[C@@H](n2nc(-c3ccc(Oc4ccccc4)cc3)c3c(N)ncnc32)C1 [ibrutinib, reference compound]
platelet aggregation (blood platelets): significant effects | number of kinases with >90% inhibition (251-kinase panel): 21 kinases
